In PubChem BioAssay AID1487 (National Center for Advancing Translational Sciences (NCATS), 2009) one finds AC50 data, which are given here for 34 compounds.

The assay in a line: qHTS Assay for Modulators of Lamin A Splicing. Conditions: HeLa LMNA splicing GFP/RFP minigene ratio, 48 h. Put shortly:
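S3 HeLa stable clones carrying a lamin A-EGFP splicing minigene plus DsRed2 were seeded at 600 cells/well in Opti-MEM with 2% FBS, pin-dosed and incubated 48 h at 37°C. Acumen cytometry (488 nm) gave the GFP/RFP total-intensity ratio.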
(In qHTS, concentration-response curves come from the screen itself.)

[1] abbreviates: measured here: GFP splicing reporter channel.
Where [2] appears, read: measured here: RFP viability control channel.

The structures appear in SMILES notation. This is one part of the list. Further columns of the screen follow, without active or inactive calls. Compounds called inactive in the main read-out are mostly missing here. The note in brackets gives the kind of curve behind each potency; many fits are weak.

For `CC(C)Oc1cc(NC(=O)CSCC(=O)Nc2cccc(C(F)(F)F)c2)c(Cl)cc1Cl`, the AC50 by setting is: under setting [1], 35.5 µM [rising, single point]; under setting [2], 35.5 µM [rising, single point]. Consider `CN(C)CCCN1C(=O)c2cccc3c([N+](=O)[O-])ccc(c23)C1=O`, for which the AC50 under setting [2] was 8.91 µM [rising, partial curve, poor fit].

Take `CCOc1ccc(S(=O)(=O)N2CCc3cc(OC)c(OC)cc3C2)cc1`: the AC50 under setting [1] was 31.6 µM [rising, single point] and the AC50 under setting [2] was 35.5 µM [rising, single point]. `Nc1nnc(COc2cccc(C(F)(F)F)c2)s1`: under setting [2], the AC50 was 35.5 µM [rising, single point]. Consider `CCc1ccc(N2C(=O)c3sc4nnc(C)c(=O)n4c3C2=O)cc1`, for which the AC50 is 25.1 µM [rising, single point] under setting [1] and 15.8 µM [rising, single point] under setting [2].

On to `O=C(NCCc1ccccc1)c1ccc(CSc2nc3cccnc3n2Cc2ccccc2)cc1`, for which the AC50 runs as follows: under setting [1], 25.1 µM [falling, partial curve]; under setting [2], 35.5 µM [falling, partial curve, poor fit].

Take `COC(=O)c1cccc(OCC(O)Cn2cnc3cc(C)c(C)cc32)c1` (configuration not stated): the AC50 under setting [2] is 31.6 µM [rising, single point].

For `Cc1cccc(CSCCNC(=S)Nc2ccccc2)c1`, the AC50 is 11.2 µM [rising, single point] under setting [1] and 17.8 µM [rising, single point] under setting [2]. For `CCOC(=O)c1nnn(-c2nonc2N)c1-c1cccs1`, under setting [1], the AC50 was 35.5 µM [rising, single point]. As for `CCc1nc(N2CCN(Cc3ccc4c(c3)OCO4)CC2)c2oc3ccccc3c2n1`, the AC50 reads like this: under setting [1], 7.94 µM [falling, partial curve]; under setting [2], 7.08 µM [falling, partial curve].

With `O=C(NNC(=O)c1ccncc1)Nc1cccc([N+](=O)[O-])c1`, the AC50 under setting [2] is 0.00355 µM [falling, full curve, poor fit].

`CC1=NN(c2ccc(S(=O)(=O)O)cc2C)C(=O)C1`: the AC50 was 0.141 µM [rising, full curve, poor fit] under setting [1] and 0.316 µM [rising, full curve, poor fit] under setting [2]. On to `CC(C)CC(=O)Nc1ccc(C(=O)NNC(=S)NC(=O)C2CCCCC2)cc1`, for which the half-maximal activity concentration (AC50) under setting [2] was 31.6 µM [rising, single point].

With `Cc1cc(C)cc(NC(=S)NCc2ccc3[nH]c4c(c3c2)CCCC4)c1`, the AC50 reads like this: under setting [1], 12.6 µM [rising, partial curve, poor fit]; under setting [2], 20 µM [rising, partial curve].

On to `COc1ccc(NC(=O)CCCN2C(=O)/C(=C\c3ccco3)SC2=S)cc1`, for which the AC50 under setting [2] was 2.82 µM [rising, full curve, poor fit]. On to `COc1ccc(C(=O)c2c(C(F)(F)F)oc3c2C(=O)c2ccccc2C3=O)cc1`, for which the AC50 under setting [1] was 3.16 µM [falling, full curve] and the AC50 under setting [2] is 5.01 µM [falling, full curve]. `CCC(=O)Nc1ccccc1Nc1cc(C#N)c(C#N)cc1[N+](=O)[O-]`: the AC50 is 17.8 µM [rising, single point] under setting [1] and 15.8 µM [rising, single point] under setting [2].

For `Cc1cc(C)nc(SCSc2nc(C)cc(C)n2)n1`, under setting [2], the concentration at half-maximal activity (AC50) was 3.55 µM [rising, single point].

Take `COc1ccc(N2COC3c4cccc5cccc(c45)C32)cc1` (configuration not stated): the AC50 under setting [2] is 15.8 µM [falling, single point]. Turning to `COc1ccc(OC)c(NC(=O)CSc2nnc(Cc3cccn3C)n2CCc2ccccc2)c1`, the AC50 was 0.562 µM [falling, full curve] under setting [1] and 0.794 µM [falling, full curve, poor fit] under setting [2].

Take `CN1CCN(CCCC(=O)c2ccc(C3CCCC3)cc2)CC1`: the AC50 under setting [1] was 3.98 µM [rising, partial curve, poor fit] and the half-maximal activity concentration (AC50) under setting [2] is 7.08 µM [rising, single point]. In the case of `CCN(CC)S(=O)(=O)c1cccc(NC(=O)Nc2cccc(C(F)(F)F)c2)c1`, the concentration at half-maximal activity (AC50) under setting [1] was 35.5 µM [rising, single point] and the AC50 under setting [2] is 35.5 µM [rising, single point].

As for `O=C(NCCc1c[nH]c2ccccc12)C(=O)NCC1OCCCN1S(=O)(=O)c1ccccc1` (configuration not stated), the AC50 is 12.6 µM [rising, single point] under setting [1] and 15.8 µM [rising, single point] under setting [2]. For `CCc1ccc(NC(=O)COc2ccc(F)cc2C(=O)c2cnn(-c3ccccc3)c2)cc1`, the AC50 is, setting by setting: under setting [1], 35.5 µM [rising, single point]; under setting [2], 10 µM [rising, partial curve, poor fit]. For the compound `COc1ccc(C(=O)CSc2nnc(CN3CCCCC3)n2-c2ccc(Cl)cc2)cc1OC`, the half-maximal activity concentration (AC50) is, setting by setting: under setting [1], 15.8 µM [rising, single point]; under setting [2], 10 µM [rising, partial curve]. Consider `CCOc1cccc2sc(N(Cc3cccnc3)C(C)=O)nc12`, for which the AC50 under setting [2] is 0.0891 µM [rising, full curve]. The same measure, in the same setting: next, `O=C(Nc1ccccc1SCC1CSc2nc3ccccc3c(=O)n21)c1ccccc1` (configuration not stated): 10 µM [rising, partial curve, poor fit]. On to `O=C(Nc1ccc(F)c(Cl)c1)c1cc(S(=O)(=O)NCc2ccc3c(c2)OCO3)ccc1F`, for which the AC50 runs as follows: under setting [1], 35.5 µM [falling, single point]; under setting [2], 28.2 µM [falling, single point]. Regarding `CC(C)CC(O)(CC(C)C)C(=O)NNc1ccccc1`, under setting [1], the AC50 is 22.4 µM [rising, single point]. On to `Cc1sc2nc(C3CC3)nc(NCCNS(C)(=O)=O)c2c1C`, for which the AC50 under setting [2] is 11.2 µM [rising, single point]. With `C[n+]1cccc(C(=O)NNC(=O)C23CC4CC(CC(C4)C2)C3)c1`, the AC50 under setting [2] is 0.398 µM [falling, full curve]. For the compound `Cc1ccc(NC(=O)N2CCN(C(=O)c3nsc4ccccc34)CC2)cc1C`, the AC50 was 0.794 µM [rising, full curve] under setting [1] and 1.58 µM [rising, partial curve] under setting [2]. As to `CCOC(=O)Cc1nn(CC)c(=O)c2ccccc12`, under setting [1], the AC50 was 1.41 µM [falling, single point]. Take `Cc1sc2ncnc(N/N=C/c3ccc(O)cc3)c2c1C`: the AC50 under setting [2] was 0.0631 µM [rising, full curve].

The term AC50 denotes the concentration giving half of the maximal activity seen.
